In paper PMC4797270:
These are yes or no findings as the source states them, for the method shown. For some assays here: Binding seen in cells or lysates may run through a third protein. Some results given as binding are weak or reduced against the parent protein; the word gives no strength. For some assays here: Where a sequence is shown, tags or fusion partners need not be part of it.

Sequences of proteins named here, by UniProt entry; tags and fusion partners are left off.
UniProt Q9V6Q2: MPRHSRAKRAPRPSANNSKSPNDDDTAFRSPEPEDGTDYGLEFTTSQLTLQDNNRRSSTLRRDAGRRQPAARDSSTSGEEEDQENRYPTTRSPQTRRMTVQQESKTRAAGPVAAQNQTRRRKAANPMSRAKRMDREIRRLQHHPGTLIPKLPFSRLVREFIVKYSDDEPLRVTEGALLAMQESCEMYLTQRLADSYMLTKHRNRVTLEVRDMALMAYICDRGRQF
UniProt Q24572: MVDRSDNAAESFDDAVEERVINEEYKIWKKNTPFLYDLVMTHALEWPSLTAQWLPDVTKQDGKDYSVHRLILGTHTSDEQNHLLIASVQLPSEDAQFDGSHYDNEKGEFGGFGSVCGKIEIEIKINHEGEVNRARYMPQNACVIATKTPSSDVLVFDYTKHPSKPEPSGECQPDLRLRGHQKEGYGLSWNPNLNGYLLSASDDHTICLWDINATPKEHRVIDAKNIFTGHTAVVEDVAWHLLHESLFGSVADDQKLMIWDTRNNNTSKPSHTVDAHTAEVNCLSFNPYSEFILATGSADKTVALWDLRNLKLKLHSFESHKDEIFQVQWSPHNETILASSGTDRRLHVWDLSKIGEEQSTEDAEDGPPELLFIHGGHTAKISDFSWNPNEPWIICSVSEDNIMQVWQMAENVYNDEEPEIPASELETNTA
UniProt Q8IRG6: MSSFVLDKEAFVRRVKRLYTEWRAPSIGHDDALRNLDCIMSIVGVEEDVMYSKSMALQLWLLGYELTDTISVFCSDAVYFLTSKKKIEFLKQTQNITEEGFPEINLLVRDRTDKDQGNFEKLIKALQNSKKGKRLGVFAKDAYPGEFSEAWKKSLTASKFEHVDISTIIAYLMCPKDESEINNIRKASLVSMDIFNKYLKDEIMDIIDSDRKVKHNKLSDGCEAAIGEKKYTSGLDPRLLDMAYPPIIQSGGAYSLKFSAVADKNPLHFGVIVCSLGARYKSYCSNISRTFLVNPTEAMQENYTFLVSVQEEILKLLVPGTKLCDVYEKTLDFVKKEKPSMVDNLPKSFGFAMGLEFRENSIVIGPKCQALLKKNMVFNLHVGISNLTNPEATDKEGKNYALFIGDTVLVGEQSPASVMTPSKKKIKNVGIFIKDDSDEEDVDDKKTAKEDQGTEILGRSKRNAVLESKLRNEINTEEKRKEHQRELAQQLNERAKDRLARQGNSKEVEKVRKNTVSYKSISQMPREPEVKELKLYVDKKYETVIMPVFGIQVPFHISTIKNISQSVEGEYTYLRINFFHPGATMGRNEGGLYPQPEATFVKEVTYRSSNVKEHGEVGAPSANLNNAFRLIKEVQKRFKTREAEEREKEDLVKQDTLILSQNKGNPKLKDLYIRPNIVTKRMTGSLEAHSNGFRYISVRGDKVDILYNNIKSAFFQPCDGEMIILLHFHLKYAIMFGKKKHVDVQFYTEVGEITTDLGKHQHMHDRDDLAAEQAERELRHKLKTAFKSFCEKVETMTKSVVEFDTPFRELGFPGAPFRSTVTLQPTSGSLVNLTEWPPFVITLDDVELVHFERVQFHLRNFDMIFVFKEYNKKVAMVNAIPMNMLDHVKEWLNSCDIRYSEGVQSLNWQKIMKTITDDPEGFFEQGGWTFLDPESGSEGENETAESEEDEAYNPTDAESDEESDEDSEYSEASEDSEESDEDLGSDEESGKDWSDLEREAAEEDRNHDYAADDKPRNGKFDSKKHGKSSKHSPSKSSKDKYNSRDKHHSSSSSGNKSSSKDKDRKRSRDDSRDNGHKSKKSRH

Assays:
[1] = biological target: CENP-A/Cid (endogenous) (Drosophila melanogaster (endogenous in S2)) (UniProt Q9V6Q2); experiment: co-IP; SEC fraction B13 (FACT-CAL1 peak) of S2 nuclear extract; IP with antibodies against CENP-A or CAL1, western blot
[2] = biological target: CENP-A/Cid (endogenous) (Drosophila melanogaster (endogenous in S2)) (UniProt Q9V6Q2); experiment: SEC; Superose 6 (100 ml) of nuclear extract from S2 cells stably expressing SF-CG2051; 30 mM Tris/HCl pH 8, 200 mM NaCl, 2 mM EDTA, 10% glycerol; fractions analysed by western blot
[3] = biological target: V5-tagged CENP-A, full length (Drosophila melanogaster) (UniProt Q9V6Q2); experiment: co-IP; extracts of Sf9 cells co-infected with baculoviruses; IP with α-V5 antibodies, immunoblotting
[4] = biological target: Flag-tagged Caf1 (Drosophila melanogaster) (UniProt Q24572); experiment: co-IP; extracts of Sf9 cells co-infected with baculoviruses; IP with α-Flag resin, immunoblotting with α-Flag and α-V5 (α-Caf1 for the endogenous Sf9 protein); control IPs from cells without the Flag-tagged protein

Molecule | binding [1] | binding [2] | binding [3] | other results
FACT subunit Dre4, endogenous (from UniProt Q8IRG6 1-1083) | binds | binds | – | –
Caf1 (Rbap46/48), endogenous (from UniProt Q24572 1-430) | binds | – | – | –
V5-tagged CENP-A, full length (from UniProt Q9V6Q2 1-225) | – | – | – | binding [4]: binds

Second part, led by results:

binding [1] | binding [2] | binding [3] | Molecule | other results
– | – | binds | untagged FACT subunit Dre4 (Sf9) (from UniProt Q8IRG6 1-1083) | –
binds | binds | – | FACT subunit Ssrp, endogenous (protein, UniProt Q05344 1-723) MTDSLEYNDINAEVRGVLCSGRLKMTEQNIIFKNTKTGKVEQISAEDIDLINSQKFVGTWGLRVFTKGGVLHRFTGFRDSEHEKLGKFIKAAYSQEMVEKEMCVKGWNWGTARFMGSVLSFDKESKTIFEVPLSHVSQCVTGKNEVTLEFHQNDDAPVGLLEMRFHIPAVESAEEDPVDKFHQNVMSKASVISASGESIAIFREIQILTPRGRYDIKIFSTFFQLHGKTFDYKIPMDSVLRLFMLPHKDSRQMFFVLSLDPPIKQGQTRYHYLVLLFAPDEETTIELPFSEAELRDKYEGKLEKEISGPVYEVMGKVMKVLIGRKITGPGNFIGHSGTAAVGCSFKAAAGYLYPLERGFIYIHKPPLHIRFEEISSVNFARSGGSTRSFDFEVTLKNGTVHIFSSIEKEEYAKLFDYITQKKLHVSNMGKDKSGYKDVDFGDSDNENEPDAYLARLKAEAREKEEDDDDGDSDEESTDEDFKPNENESDVAEEYDSNVESDSDDDSDASGGGGDSDGAKKKKEKKSEKKEKKEKKHKEKERTKKPSKKKKDSGKPKRATTAFMLWLNDTRESIKRENPGIKVTEIAKKGGEMWKELKDKSKWEDAAAKDKQRYHDEMRNYKPEAGGDSDNEKGGKSSKKRKTEPSPSKKANTSGSGFKSKEYISDDDSTSSDDEKDNEPAKKKSKPPSDGDAKKKKAKSESEPEESEEDSNASDEDEEDEASD | –
– | – | binds | untagged FACT subunit Ssrp (Sf9) (protein, UniProt Q05344 1-723) MTDSLEYNDINAEVRGVLCSGRLKMTEQNIIFKNTKTGKVEQISAEDIDLINSQKFVGTWGLRVFTKGGVLHRFTGFRDSEHEKLGKFIKAAYSQEMVEKEMCVKGWNWGTARFMGSVLSFDKESKTIFEVPLSHVSQCVTGKNEVTLEFHQNDDAPVGLLEMRFHIPAVESAEEDPVDKFHQNVMSKASVISASGESIAIFREIQILTPRGRYDIKIFSTFFQLHGKTFDYKIPMDSVLRLFMLPHKDSRQMFFVLSLDPPIKQGQTRYHYLVLLFAPDEETTIELPFSEAELRDKYEGKLEKEISGPVYEVMGKVMKVLIGRKITGPGNFIGHSGTAAVGCSFKAAAGYLYPLERGFIYIHKPPLHIRFEEISSVNFARSGGSTRSFDFEVTLKNGTVHIFSSIEKEEYAKLFDYITQKKLHVSNMGKDKSGYKDVDFGDSDNENEPDAYLARLKAEAREKEEDDDDGDSDEESTDEDFKPNENESDVAEEYDSNVESDSDDDSDASGGGGDSDGAKKKKEKKSEKKEKKEKKHKEKERTKKPSKKKKDSGKPKRATTAFMLWLNDTRESIKRENPGIKVTEIAKKGGEMWKELKDKSKWEDAAAKDKQRYHDEMRNYKPEAGGDSDNEKGGKSSKKRKTEPSPSKKANTSGSGFKSKEYISDDDSTSSDDEKDNEPAKKKSKPPSDGDAKKKKAKSESEPEESEEDSNASDEDEEDEASD | –
